In all, about 33,000 sequences were measured (“E-score (-0.5 to 0.5)”: median about -0.015, highest 2% from about 0.3 on). This is one part of the list.
Each sequence was assayed against T1, Abf1 (UniProt P14164) (assay: PBM E-score (8-mer binding enrichment) (E-score (-0.5 to 0.5)); higher = stronger / more preferred TF binding). Conditions: protein concentration: 200 nM; construct: GST-full length.
T1 sequence: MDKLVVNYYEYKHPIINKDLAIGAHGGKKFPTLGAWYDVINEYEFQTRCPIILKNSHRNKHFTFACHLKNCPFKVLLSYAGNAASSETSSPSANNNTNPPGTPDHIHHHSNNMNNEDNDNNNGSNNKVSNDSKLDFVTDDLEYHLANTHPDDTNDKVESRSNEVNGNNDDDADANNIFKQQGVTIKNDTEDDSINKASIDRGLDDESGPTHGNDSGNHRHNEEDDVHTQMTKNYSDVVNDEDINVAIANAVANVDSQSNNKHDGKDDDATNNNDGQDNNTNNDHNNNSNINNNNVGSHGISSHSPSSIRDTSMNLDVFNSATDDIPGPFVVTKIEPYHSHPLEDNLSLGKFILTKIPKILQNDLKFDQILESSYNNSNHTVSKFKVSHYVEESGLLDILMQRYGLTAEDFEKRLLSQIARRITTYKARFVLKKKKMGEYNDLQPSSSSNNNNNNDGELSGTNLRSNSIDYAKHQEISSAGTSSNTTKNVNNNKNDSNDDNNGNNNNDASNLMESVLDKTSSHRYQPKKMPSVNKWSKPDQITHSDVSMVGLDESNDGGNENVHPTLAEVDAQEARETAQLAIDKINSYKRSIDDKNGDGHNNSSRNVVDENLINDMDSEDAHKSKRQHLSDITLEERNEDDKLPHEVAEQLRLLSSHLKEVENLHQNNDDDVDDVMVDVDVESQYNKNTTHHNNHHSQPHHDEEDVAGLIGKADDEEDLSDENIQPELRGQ
Method in brief: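 The E-score, a modified Wilcoxon-Mann-Whitney statistic, was computed by the Universal PBM Analysis Suite for every ungapped eight-base word pooled with its reverse complement. Scans behind it were normalised with masliner after bound GST-tagged yeast transcription factors were detected with fluorescent anti-GST. The proteins, at about 100-200 nM, had been applied to universal all-10-mer Agilent arrays made double-stranded by primer extension.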

Sequence | PBM E-score
AAAGTAAT | 0.0732
TGCGCAAA | 0.0302
AACACACA | 0.0634
GAATTAGC | 0.0828
TCACAGCA | 0.0235
GAAGTCCC | -0.296
GACGGGAA | 0.098
GAACCCAC | 0.0639
TGTACCAA | 0.0776
ACCGGCCG | -0.0185
AGATTTCG | 0.0655
CATTTCTA | 0.173
AGAGTTGA | 0.0576
ATGATACG | 0.305
CTCTGGCC | -0.281
GTGACCAA | 0.229
CTTTATCC | -0.0621
GTAACGTA | 0.139
ATTGGCTA | 0.0308
AATTCTAG | 0.0424
CTCGGCAA | -0.0896
CAAGCAAC | 0.137
ACCGAAGA | -0.0637
AGGATACC | 0.0364
AGGCACTA | -0.0974

Sequence | PBM E-score
ATACGTCC | 0.12
AGCTAGCG | -0.0762
AATCAATT | 0.0887
CCTATAAG | -0.23
AGGTGGAA | 0.0882
ACAAGTCG | -0.21
ACAGATCC | -0.092
AAACACGT | -0.178
AGTTTAGA | -0.0102
CTGAGCAC | -0.0119
AGTCCTGC | -0.207
CCCCCTGC | -0.344
AACTATCT | -0.0536
GTAATCAA | 0.229
CTATTCGC | -0.0685
GAGGTACA | -0.0744
GCAGACGC | -0.063
AAGGGGTC | -0.276
GCCTCCCC | -0.344
CTCGTCGA | 0.165
AACTGAAT | -0.0812
AGGGTGAG | -0.102
CAACTTGG | -0.0126
CGACATTC | 0.0424
AGAGTACT | -0.22

Sequence | PBM E-score
ATATCCTC | 0.133
AGGGTGAC | 0.166
GACCTTAA | 0.00054
CTATATCC | -0.0211
CTCGTGCC | -0.0761
AGGCAATG | -0.0496
CCCTGGCG | -0.243
CGGCAAGC | 0.0221
ATTCATAA | 0.111
CCGCACAG | -0.0965
ACAAGCCA | -0.0334
CAGTATCG | 0.14
ATAAACTC | -0.0308
ACCTATTA | 0.0712
CCATGACA | 0.0894
CTGCTGGA | -0.0122
CTCCATTA | -0.244
ACCACAAA | 0.0999
CCTTAGAC | -0.0549
AATATAAT | 0.119
CCGACGAC | 0.261
AAGGTGAT | 0.264
CGTGCCAG | 0.148
AGGCAGCA | -0.0225
GTTGCCGA | -0.0651

Sequence | PBM E-score
AAGCGTCG | 0.0106
CCCTCCAG | -0.378
AACCTCGC | -0.0854
GACCGAGA | -0.119
ATCGTCCC | 0.143
AGCCTACT | -0.182
CCTACGCA | -0.0242
GCCATCAA | -0.165
CGTCTTCC | 0.027
TAACTTGA | 0.0918
ACTTCTGG | -0.069
ATCTGAAC | -0.027
CAGCATTC | -0.0995
AGTCGCTC | -0.106
CCCTAAGC | -0.148
CGTGCGCA | 0.141
CAGGGTGA | 0.0383
CAAGTCTG | -0.173
CCAACATA | 0.138
CATGACAC | 0.218
CGATGCTA | 0.0972
CGTCTACA | 0.0401
AACGGATG | -0.181
TGGCCGAA | -0.13
GTTCGGTA | -0.0503

Sequence | PBM E-score
CTCTCATA | 0.0213
GCCTGCAC | -0.184
ACGCGGGA | -0.167
ACCAAATA | 0.167
CGCCACGA | 0.16
ACTTTGTG | 0.13
GTTACATA | 0.0313
CCGTAGCG | 0.132
ATCATCAC | 0.393
CTGGGGAA | -0.228
TAATTGTA | -0.0372
AGAACCTC | -0.134
CAGGTAGC | -0.0477
CCTCATCC | -0.212
ACACCGTA | 0.0493
ACTTCGCA | 0.0373
TCAAGTGA | 0.208
CTACGGGC | -0.177
AAGCATTA | 0.0928
AATATTGA | 0.142
CAATGCGC | 0.1
TGGGAAAA | 0.0159
TCTCAGAA | 0.102
GACGTGCA | 0.358
CCCTACCC | -0.183

Sequence | PBM E-score
GCAAACGC | 0.00943
AATATTCG | 0.142
AGGCCTCG | -0.0392
AGATGACT | -0.0855
ACCGACAC | 0.0328
ACCGGGCC | -0.0476
AGGTATAC | 0.0716
GCTTTGAC | 0.00967
ATGCTCCA | -0.08
GAATTCGC | 0.0899
CGACGCCG | 0.194
AAAAGAGG | -0.191
GACGTATC | 0.189
CAATCTCG | 0.0422
AAGGACGA | 0.14
TCCAACAA | 0.123
ACTAACAA | 0.00481
TAGTAGGA | -0.0503
CCGACCAC | -0.105
AGCGCAAT | -0.0482
AAATTACT | 0.146
CTGAATTA | 0.146
CTGCTAGC | -0.3
GAAAGTGA | 0.272
AACCAGAA | 0.0884

Sequence | PBM E-score
AGATCTTG | -0.123
AACTCTGA | 0.116
ACTAGGAC | -0.201
CTGCACTA | 0.0411
AGGCATAA | -0.151
CAATATAG | -0.0172
GGTTTAAA | 0.172
ACGTCGAA | 0.163
AAGTCCGT | 0.142
CAGAAAGC | -0.0494
ATGGTCGG | -0.132
AGTACCGC | -0.117
ATTGTCTG | -0.0522
GTGCACAA | 0.0931
ACTTTGTA | 0.0728
CGGCCTAC | -0.0261
ATCTACAC | 0.111
CCCGATAG | -0.2
CTTACTGA | -0.0877
CGTTATGC | 0.0121
CAATTCCA | -0.00098
ACAAAAAG | 0.225

From the supplement of paper PMC3334620
